Test results published in article PMC7190641.
No constants are given. Whether binding was seen depends on the method and setting. Binding seen in cells or lysates may run through a third protein. These calls come from enrichment with a bait or labelling near it, and not all partners need be listed. A no says only that the protein was not detected with the bait.

The chains behind the UniProt entries cited, without tags or fusion partners. Where a name states a change or a piece, a line headed by the entry shows the natural chain unless it says otherwise.
UniProt G5EG87: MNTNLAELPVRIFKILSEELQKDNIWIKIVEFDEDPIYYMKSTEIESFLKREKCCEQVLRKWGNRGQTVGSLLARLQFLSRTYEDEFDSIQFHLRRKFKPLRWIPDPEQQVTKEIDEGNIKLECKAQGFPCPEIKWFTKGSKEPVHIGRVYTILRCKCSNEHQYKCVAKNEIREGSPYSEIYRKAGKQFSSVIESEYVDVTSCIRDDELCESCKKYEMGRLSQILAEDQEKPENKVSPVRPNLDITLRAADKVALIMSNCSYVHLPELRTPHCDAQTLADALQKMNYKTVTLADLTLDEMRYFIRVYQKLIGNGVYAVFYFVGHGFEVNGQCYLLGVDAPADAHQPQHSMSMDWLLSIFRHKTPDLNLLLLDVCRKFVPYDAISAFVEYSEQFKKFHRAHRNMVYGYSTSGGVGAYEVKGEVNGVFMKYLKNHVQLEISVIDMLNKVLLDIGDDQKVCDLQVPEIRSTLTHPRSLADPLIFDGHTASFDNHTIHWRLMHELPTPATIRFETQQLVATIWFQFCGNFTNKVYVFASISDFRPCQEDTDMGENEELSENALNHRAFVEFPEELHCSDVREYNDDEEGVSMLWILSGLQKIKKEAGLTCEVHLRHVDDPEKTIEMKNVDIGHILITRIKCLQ

B1: NFKI-1 (endogenous, C. elegans extract) (protein, UniProt G5EDE9 1-611)
chain: MATVAPKGNCLVARAIPSDSHADQLTDLLCKLSVNGDANQKSVNKFESQHGVTPSDFRDIQNIRSSALAKKTKTSKFQLDGVTLFADLTPNSKSKKKTENQETKEKDEEAEEKKDGPPKDDKELKMKKEKEQEDENAELDEQKKDGDLLGRGPVHNVRVATGGSHPYHRAQIPYGCAAQTPITDISAYTGYGSGYECGSTWSLSPDTTIGSISASTTPDTVLSSDGYGSASPPQHSPKESLQSPFSDISSADTSRVLTPENNELPESLQDFILQYSNQYTKEESIRGRPPSADSGVSSPMSARSAPYASPHVPQGTCSGPTTPSFNQTRLSPRTSENGITAKQRLNAIIPESDLATGFHWACTTWKNVLTNRDADGDTPLHIVAAHNDLGKIYALCETLRKTMNENDDNVFNVSNNFGETPLYVAVLQRSIEVVEYLLELGASPNSRSSRAVGDSPLHFATARGMNNMVEALLSKREIRVNETNDDGQTSLLCAVKMHGMMDEQTQHKIDNKSIIEMLIKAGADPTIAETSTGKTIVHHAVDKMDVELLDFLKTVVNEDTFTELANLSDFHGDTAVDLLCSSTQNEDTNNVRENLYIRLLTSGAVPNKSRA
B2: TIR-1 (Toll/Interleukin-1 Receptor domain protein), C. elegans ortholog of SARM1 (protein, UniProt Q86DA5 1-981)
chain: MLPNRKPPRPSPSFQSLNNNNQRFPLRRSLKIAQAHSLPTVPSEDAKDDDLITPELSTDFDFREIQHRYLMALQNEQDGETTSTDDAFFELDDDDDLSSPSVPGSPVDPPSISVPLPPKSAPPCPTQPAPLTNGDLYPTILSNGTPIPNGRITPALSTVSVSLIHEARLQQSLSTPCNGSEEEMHNGQVRKESEYRRFKSEGSTAGASLPAAEKTHMDELSPVDQRSTSGTARFLIQQDSVVNPSTKMSNTEQVAMMHTLKTKLSKYQAMMDKAFEEIAKVEDANIIEGCTIVRKLMRKVWNTPKVSADLANALCDYLRDRDYFDKLIKMFISPNTAACDQVRMECGKVLEECTSSANLEYIVNKSYTKKIMIVAMKLNKTPDQQRLSLSLIGNLFKHSNAVSLSLIETDVIDHIILTFKRAPECPDILRHAALALANILLYTCFEGKKKIIQKKIPEWLFFLASQADDVTRYYACIAVCTIVSVKEFEPLVRKSDTMKLVEPFLQVHDPATFARDYHKYAQGNTKEWLERLLPMLQPSRRREARSVAAFHFTLEATIKKEQNKLDVFQEIGAIQALKEVASSPDEVAAKFASEALTVIGEEVPYKLAQQVPGWTCADVQYWVKKIGFEEYVEKFAKQMVDGDLLLQLTENDLKHDVGMISGLHRKRFLRELQTLKVAADYSSVDESNLDNFLMGLSPELSVYTYQMLTNGVNRSLLSSLTDEMMQNACGITNPIHRLKLTQAFETAKHPDDVEVAMLSKQIDVFISYRRSTGNQLASLIKVLLQLRGYRVFIDVDKLYAGKFDSSLLKNIQAAKHFILVLTPNSLDRLLNDDNCEDWVHKELKCAFEHQKNIIPIFDTAFEFPTKEDQIPNDIRMITKYNGVKWVHDYQDACMAKVVRFITGELNRTTPTTKEMPSISRKTTQQRWQTTNTVSRTGPSRSIGGPRMEPPTPTFTPTGSQERATSTRRKIQPSASTTSDRN
B3: NHR-49 (protein, UniProt O45666 1-501)
chain: MDYFLDASKHIQLNQIDEESSDDFMDLVDPLAEPCAVCGDKSTGTHYGVISCNGCKGFFRRTVLRDQKFTCRFNKRCVIDKNFRCACRYCRFQKCVQVGMKREAIQFERDPVGSPTSGASLNGTPFKKDRSPGYENGNSNGVGSNGMGQENMRTVPQSSSVIDALMEMEARVNQEMCNRYRRSQIFANGSGGSNGNDTDIQQGSDSGASAFAPPNRPCTTEVDLNEISRTTLLLMVEWAKTINPFMDLSMEDKIILLKNYAPQHLILMPAFRSPDTTRVCLFNNTYMTRDNNTDLNGFAAFKTSNITPRVLDEIVWPMRQLQMREQEFVCLKALAFLHPEAKGLSNSSQIMIRDARNRVLKALYAFILDQMPDDAPTRYGNILLLAPALKALTQLLIENMTLTKFFGLAEVDSLLSEFILDDINDHSTAPVSLQQHLSSPTTLPTNGVSPLNPAGSVGSVSSVSGITPTGMLSATLAAPLAIHPLQSQDSILNSEQNNHML
B4: RLE-1 (C. elegans ortholog of roquin-1/2) (protein, UniProt O45962 1-952)
chain: MAPTGQGGQWQEVLCCSICNRHFNETFLPVSLICGHVICRKCAEKPENQTKPCPHDDWKTTHSPSEYPNNVALLSVIFPRKQCMTLSGAVSEAEKRVDQLSIQIAKFFREADSERGGTVSSREISRTLQRKVLALLCYQWREVDGRLKTLKMCRGISERVMIEIILSIQSNTHVSSQLWSAVRARGCQFLGPAMQDDVLRLILMTLETGECIARKNLVMYVVQTLASDYPQVSKTCVGHVVQLLYRASCFNVLKRDGESSLMQLKEEFRTYESLRREHDSQIVQIAFESGLRIGPDQWSALLYADQSHRSHMQSIIDKLQSKNSYQQGVEELRALAGSQTSMLVPAYRYFLTQVIPCLEFFAGIEHEDTSMRMIGDALHQIRILLKLHCSQDDLRKMPKEERRGVILQAEVPGGMGGGPGGSGGAEAGRIGGLHPLYSQIDETGRSISRTNPKDNSHNSPQTPPKQPRQKRYQMGIPPNRMGYSSDAPPFIPSHQQQPPPQFFNSQHLPQRFRGGRQRGAPPPPPPQPMPMLIGYDMPGAPMMQATEVLTADGQMVNGTPQRVVIMQSPTHLPGGPVVMIPQQQMVPPPQSMTPVGGPMGPMGPMTPSIPVQVPPNTMWTATSPTGSVIYPAASPPGQPPHTIWIQSTDGNMFPMFDRGSGGMVWGPGTMLRESGADAEQLLAKRYEILKRLQPSEDDDDPEDGGIGHVSYTVASSVLDDRMDHHPLTMIPVPTIDLPAIPISFANMPTEETMTMIGEMVQNRPRAPSLTAPSSNQPMNVNASASATVQAECGTMSVMDSICQPISTSAIHNSATIPQPVIPMVQVPVQVPIVPAENFNPNVPPPPPPPQGQPMLVDSAIGLLTPIRPILVAHPQNVVSNSLDKIVDVKERISEAQGNASEAENAHLRMELRMAESQMAHLDPYTKNNCLLRALQQVDMELQQLHLNPTVEG
B5: REGE-1 (C. elegans ortholog of the endoribonuclease regnase-1) (protein, UniProt Q95YE2 1-634)
chain: MDSTARGHAPLCRTSNQRGLGTRLNPYYQSTPHQPMVQSMSNPIGSYGEQGNAQIIGSSGQVLSTGPPPGLAPVQCNDFDSCYSSCDDISHPSLSRESSDPSKIDDDQTAPMIRYPAPEVVEFATKLGYSTEQLSHVLNTIGVDSRMDDVLSELVKMGLPGGKPENSGKSGSRNSPEPIMTSSASSSSASSSSSHRPIRQSVSIATSSPATSSSTPSKYNPDPSLRAVVVDGSNVAMLHGRKEVFSCAGLRECLNYFLERGHPEVLIFIPQYRREQPRSDSPITDQHILQEIERHIIYTPSRNVNGRRVVCHDDRYILRTAELKDAVIVSNDEYRDLTRENPAWRKIVEERLLMFTFVEDKFMPPDDPSGRHGPRIESFLSKVPVVSSNPLVCPYARKCTYGNKCKFYHPERANGQHMSVTERLMKENQQKKSLGAVKSMQYEMFKNKHAALSRTQSLNVVKQLTENMSQLPPTPESPMQMPRQHMQLQQANSAPWQQHTVVQRHGSSPLTPVNRQMNVYPDMYNMSQQQNHQVLPNQHGVIGGQRPPKMTTTVSQTHLFAPSTAVWGHSELSVGPVNTGSDESLAEVRSRVHFHLCNIFPHDFVESVMAANPEEVNAPVLCELIIRAQKEYRK

Target: MALT-1::GFP (GFP-tagged MALT-1 expressed pan-neuronally) (C. elegans) (UniProt G5EG87)
Assay: affinity purification with mass spectrometry; IP of epitope-tagged bait from clarified C. elegans extract (lysis buffer A: 50 mM HEPES pH 7.4, 100 mM KCl, 0.05% NP40, 10% glycerol) with GFP-Trap MA, Myc-Trap MA or anti-FLAG M2 magnetic beads, 3-4 h at 4 °C; SDS-PAGE, LC-MS/MS, total spectral counts; controls: unrelated proteins with the same epitopes

Question: B1 was tested. Which binding did it give?
Answer: binds

Question: Which binding does the source give for B2 here?
Answer: binds

Question: How did the binding turn out when B3 was run?
Answer: binds

Question: Which binding does the source give for B4 here?
Answer: no binding

Question: With B5 as the binder, how does the binding read?
Answer: no binding
